According to publication doi:10.1101/697185:
These are yes or no findings as the source states them, for the method shown. Binding seen in cells or lysates may run through a third protein. A yes stands for co-enrichment or nearness to the bait. Other partners may have been found. Where a sequence is shown, tags or fusion partners need not be part of it.

Chains of the proteins cited; added tags and fusions are not shown. Residues count along the entry.
UniProt Q9P032: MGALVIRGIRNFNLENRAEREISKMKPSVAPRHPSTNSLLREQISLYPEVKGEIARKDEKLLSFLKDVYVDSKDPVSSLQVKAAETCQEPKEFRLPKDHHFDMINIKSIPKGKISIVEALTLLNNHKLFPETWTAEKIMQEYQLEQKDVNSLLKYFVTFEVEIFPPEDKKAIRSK
UniProt Q9Y375, residues 25-327: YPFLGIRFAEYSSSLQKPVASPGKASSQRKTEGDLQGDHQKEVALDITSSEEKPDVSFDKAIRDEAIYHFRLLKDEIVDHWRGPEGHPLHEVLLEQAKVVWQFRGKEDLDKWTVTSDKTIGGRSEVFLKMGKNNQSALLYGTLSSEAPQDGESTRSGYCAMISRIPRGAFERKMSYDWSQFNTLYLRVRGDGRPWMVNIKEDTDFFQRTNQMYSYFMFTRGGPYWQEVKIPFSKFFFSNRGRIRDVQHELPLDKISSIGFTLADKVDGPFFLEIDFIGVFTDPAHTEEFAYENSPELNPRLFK

Target: T1, BirA*-tagged TMEM70 (human) (UniProt Q9BUB7)
T1 sequence: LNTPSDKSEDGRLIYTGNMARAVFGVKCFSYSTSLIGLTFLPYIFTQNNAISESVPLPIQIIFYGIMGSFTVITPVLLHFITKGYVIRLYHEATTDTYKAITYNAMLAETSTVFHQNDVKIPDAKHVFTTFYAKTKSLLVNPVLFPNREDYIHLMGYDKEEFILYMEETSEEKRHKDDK
Test: proximity labelling

Molecule: NDUFAF4 (from UniProt Q9P032 1-175)
- binding: binds

Molecule: NDUFAF2 (human (endogenous in HEK293))
- binding: binds

Molecule: NDUFAF1 (from UniProt Q9Y375 25-327)
- binding: binds

B1: NDUFAF5 (protein, UniProt Q5TEU4 37-345)
chain: GSTSPRTLNIFDRDLKRKQKNWAARQPEPTKFDYLKEEVGSRIADRVYDIPRNFPLALDLGCGRGYIAQYLNKETIGKFFQADIAENALKNSSETEIPTVSVLADEEFLPFKENTFDLVVSSLSLHWVNDLPRALEQIHYILKPDGVFIGAMFGGDTLYELRCSLQLAETEREGGFSPHISPFTAVNDLGHLLGRAGFNTLTVDTDEIQVNYPGMFELMEDLQGMGESNCAWNRKALLHRDTMLAAAAVYREMYRNEDGSVPATYQIYYMIGWKYHESQARPAERGSATVSFGELGKINNLMPPGKKSQ
- binding: binds
